For the experiment, the system named is P388 leukemia ip, CD2F1 mice, survival T/C. In words: NCI In Vivo Anticancer Drug Screen. Data for tumor model P388 Leukemia (intraperitoneal) in CD2F1 (CDF1) mice. The following applies: T/C endpoint: median survival time, higher T/C = longer survival.
Where [1] appears, read: dose: 50.0 mg/kg/injection, schedule: Q01DX009 (ip), vehicle: saline with Tween-80.
Where [2] appears, read: dose: 200.0 mg/kg/injection, schedule: Q01DX009 (ip), vehicle: saline with Tween-80.
Where [3] appears, read: dose: 60.0 mg/kg/injection, schedule: Q01DX005 (ip), vehicle: saline with Tween-80.
[4] abbreviates: dose: 120.0 mg/kg/injection, schedule: Q01DX005 (ip), vehicle: saline with Tween-80.
The mark [5] stands for this setting: dose: 240.0 mg/kg/injection, schedule: Q01DX005 (ip), vehicle: saline with Tween-80.
Where [6] appears, read: dose: 400.0 mg/kg/injection, schedule: Q04DX003 (ip), vehicle: saline with Tween-80.
Setting [7] is: dose: 400.0 mg/kg/injection, schedule: Q01DX001 (ip), vehicle: saline with Tween-80.
Where [8] appears, read: dose: 50.0 mg/kg/injection, schedule: Q01DX005 (ip), vehicle: saline with Tween-80.
Where [9] appears, read: dose: 100.0 mg/kg/injection, schedule: Q01DX005 (ip), vehicle: saline with Tween-80.
[10] abbreviates: dose: 200.0 mg/kg/injection, schedule: Q01DX005 (ip), vehicle: saline with Tween-80.
Setting [11] is: dose: 400.0 mg/kg/injection, schedule: Q01DX005 (ip), vehicle: saline with Tween-80.

The list is a part of this screen's results and no random one: it gathers tests that were run many times, whatever their T/C, doses with no T/C, and many T/C values between a quarter and a half above the control. Further doses and runs are listed elsewhere. T/C gives the treated animals as a percentage of the vehicle group. Some entries give survivors of the animals treated and no T/C: the source files T/C as zero there, which appears to mark a toxic dose or a test without result, not a measured value. Some survivor counts are full or nearly so, which does not show that the dose was tolerated: survival well below the control is almost never listed, so the zero probably covers shortened survival too. Counts of survivors are from the toxicity check (mostly the fifth day) where no day follows; animals may have died later. Schedule codes are those of the source, read here as Q, the interval in days (D) or hours (H), X, the number of doses. Some entries hold several experiments; the results are listed from low to high. For survival time, this PubChem deposit counts one and a half times the control or more as active, and values a quarter to a half above the control carry no call in these data; other NCI protocols may use other cut-offs. Brackets with × count equal records among those shown. Some T/C values carry the count of animals alive at the toxicity check (mostly the fifth day); without a count, all were alive then.

With `C#CCNC(=S)N/N=C(\C)c1ccccn1`, the survivor count is 0 of 6 under setting [1]; 0 of 6 (dose: 100.0 mg/kg/injection, schedule: Q01DX009 (ip), vehicle: saline with Tween-80); 0 of 6 under setting [2].

For `CN(C)c1ccc2c(NCCCCCCNc3ccnc4cc(N(C)C)ccc34)ccnc2c1`, the T/C runs as follows: (dose: 3.12 mg/kg/injection, schedule: Q01DX009 (ip), vehicle: distilled water + Tween-80 + alcohol) 125 % of control; (dose: 3.12 mg/kg/injection, schedule: Q01DX009 (ip), vehicle: distilled water + alcohol) 125 % of control; (dose: 3.13 mg/kg/injection, schedule: Q01DX009 (ip), vehicle: distilled water + alcohol) 130 % of control; (dose: 6.25 mg/kg/injection, schedule: Q01DX009 (ip), vehicle: distilled water + Tween-80 + alcohol) 140 % of control; (dose: 6.25 mg/kg/injection, schedule: Q01DX009 (ip), vehicle: distilled water + alcohol) 128 and 140 % of control; (dose: 12.5 mg/kg/injection, schedule: Q01DX009 (ip), vehicle: distilled water + Tween-80 + alcohol) 144 % of control. Besides, the T/C (dose: 12.5 mg/kg/injection, schedule: Q01DX009 (ip), vehicle: distilled water + alcohol) was 145 % of control. Further, the survivor count (dose: 50.0 mg/kg/injection, schedule: Q01DX009 (ip), vehicle: distilled water + Tween-80 + alcohol) is recorded as 4 of 6; the survivor count (dose: 50.0 mg/kg/injection, schedule: Q01DX009 (ip), vehicle: distilled water + alcohol) is 2 of 6 and 5 of 6; the survivor count (dose: 100.0 mg/kg/injection, schedule: Q01DX009 (ip), vehicle: distilled water + Tween-80 + alcohol) is reported as 0 of 6; the survivor count (dose: 100.0 mg/kg/injection, schedule: Q01DX009 (ip), vehicle: distilled water + alcohol) is given as 0 of 6; the survivor count (dose: 200.0 mg/kg/injection, schedule: Q01DX009 (ip), vehicle: distilled water + alcohol) is given as 0 of 6.

As for `COC(=O)C1C(=O)CC2N(C)C1C(C)(C)C2(C)C` (stereo not given), the T/C is 134 % of control (dose: 30.0 mg/kg/injection, schedule: Q01DX005 (ip), vehicle: saline with Tween-80); 133 and 145 % of control under setting [3]; 140 % of control under setting [4]. The survivor count under setting [5] is 1 of 6 and 2 of 6.

With `CC(=O)OCC1OC(n2nc(-c3ccccc3)c(=O)n(-c3ccccc3)c2=O)C(OC(C)=O)C(OC(C)=O)C1OC(C)=O` (stereo not given), the survivor count under setting [6] was 3 of 6.

`COc1cc2cc(-c3ccccc3)[n+](C)cc2cc1OC`: the survivor count runs as follows: (dose: 50.0 mg/kg/injection, schedule: Q01DX001 (ip), vehicle: saline) 0 of 6; (dose: 100.0 mg/kg/injection, schedule: Q01DX001 (ip), vehicle: saline) 0 of 6; (dose: 200.0 mg/kg/injection, schedule: Q01DX001 (ip), vehicle: saline) 0 of 6; (dose: 400.0 mg/kg/injection, schedule: Q01DX001 (ip), vehicle: saline) 0 of 6.

In the case of `COc1ccc2c(c1)[C@]13CCN(C)[C@H](C2)[C@@H]1CCC1(C3)OCCO1`, the survivor count under setting [7] was 0 of 6.

Take `CC1(C)CCCc2c(-c3ccccc3)cc3c4ccccc4cc[n+]3c21`: the survivor count under setting [2] is recorded as 6 of 6.

As for `O=C(Nc1ccc(C2=NCCN2)cc1)C(=O)Nc1ccc(C2=NCCN2)cc1`, the T/C is 133 % of control (dose: 25.0 mg/kg/injection, schedule: Q01DX005 (ip), vehicle: saline with Tween-80); 128 and 133 % of control under setting [8]; 136 % of control [4 of 5 alive] under setting [9]. For the same compound, the survivor count is, setting by setting: under setting [9], 1 of 6; under setting [10], 0 of 6.

As to `O=c1[nH]nc(Sc2ccccc2)c2nncn12`, under setting [10], the survivor count is 1 of 6.

For `C1CO[Te]2(O1)OCCO2`, the survivor count was 6 of 6 (dose: 100.0 mg/kg/injection, schedule: Q04DX003 (ip), vehicle: saline with Tween-80); 6 of 6 (dose: 200.0 mg/kg/injection, schedule: Q04DX003 (ip), vehicle: saline with Tween-80); 1 of 6 under setting [6].

For the compound `C/C(=N\NC(=S)SCc1ccccc1)c1ccccn1`, the T/C (dose: 12.5 mg/kg/injection, schedule: Q01DX009 (ip), vehicle: Klucel (hydroxypropylcellulose) (HPC)) was 126 [5 of 6 alive] and 128 % of control. Moreover, the survivor count is, setting by setting: (dose: 25.0 mg/kg/injection, schedule: Q01DX009 (ip), vehicle: Klucel (hydroxypropylcellulose) (HPC)) 6 of 6; (dose: 50.0 mg/kg/injection, schedule: Q01DX009 (ip), vehicle: Klucel (hydroxypropylcellulose) (HPC)) 6 of 6; (dose: 100.0 mg/kg/injection, schedule: Q01DX009 (ip), vehicle: Klucel (hydroxypropylcellulose) (HPC)) 6 of 6; (dose: 200.0 mg/kg/injection, schedule: Q01DX009 (ip), vehicle: Klucel (hydroxypropylcellulose) (HPC)) 0 of 6.

As for `CCN=C(NCC)c1ccc(NC(=O)Nc2ccc(NC(=O)Nc3ccc(C(=NCC)NCC)cc3)cc2)cc1`, the T/C by setting is: (dose: 12.5 mg/kg/injection, schedule: Q01DX005 (ip), vehicle: Klucel (hydroxypropylcellulose) (HPC)) 142 % of control; (dose: 25.0 mg/kg/injection, schedule: Q01DX005 (ip), vehicle: Klucel (hydroxypropylcellulose) (HPC)) 138 % of control. The survivor count (dose: 50.0 mg/kg/injection, schedule: Q01DX005 (ip), vehicle: Klucel (hydroxypropylcellulose) (HPC)) is 4 of 6; the survivor count (dose: 100.0 mg/kg/injection, schedule: Q01DX005 (ip), vehicle: Klucel (hydroxypropylcellulose) (HPC)) is reported as 0 of 6; the survivor count (dose: 200.0 mg/kg/injection, schedule: Q01DX005 (ip), vehicle: Klucel (hydroxypropylcellulose) (HPC)) is 0 of 6.

For the compound `O=C1c2ccccc2C(=O)c2sccc21`, the survivor count (dose: 12.5 mg/kg/injection, schedule: Q01DX009 (ip), vehicle: saline with Tween-80) is on record as 6 of 6 and the survivor count under setting [1] is 6 of 6.

`Cc1cc2ncc(-c3ccccc3)nc2cc1C`: the survivor count is reported as 6 of 6 (dose: 200.0 mg/kg/injection, schedule: Q01DX001 (ip), vehicle: saline with Tween-80) and 6 of 6 under setting [7].

For the compound `O=C(O)C(Cc1ccc(O)cc1)NSc1ccccc1[N+](=O)[O-]` (stereo not given), the survivor count (dose: 400.0 mg/kg/injection, schedule: Q01DX009 (ip), vehicle: water) is 3 of 6.

As to `O=C(Nc1cccc(C2=NCCCN2)c1)Nc1ccc(NC(=O)Nc2cccc(C3=NCCCN3)c2)c(Cl)c1`, the T/C was 129 % of control (dose: 2.5 mg/kg/injection, schedule: Q04DX003 (ip), vehicle: saline with Tween-80) and 137 % of control (dose: 5.0 mg/kg/injection, schedule: Q04DX003 (ip), vehicle: saline with Tween-80). For the same compound, the survivor count is, setting by setting: (dose: 40.0 mg/kg/injection, schedule: Q04DX003 (ip), vehicle: saline with Tween-80) 6 of 6; (dose: 60.0 mg/kg/injection, schedule: Q04DX003 (ip), vehicle: saline with Tween-80) 1 of 6; (dose: 80.0 mg/kg/injection, schedule: Q04DX003 (ip), vehicle: saline) 6 of 6.

For `CCOC(=O)CC(C(=O)OCC)S(=O)CP(=O)(OCC)OCC` (stereo not given), the survivor count is reported as 0 of 6 under setting [3], 0 of 6 under setting [4] and 0 of 6 under setting [5].

Consider `O=C1c2ccccc2C(Cl)(c2ccc(Cl)cc2)c2ccc(Cl)cc21` (stereo not given), for which the T/C is 106, 118 (2×), 121 % of control under setting [8]; 121, 122, 131, 138 % of control under setting [9]; 124, 126, 135 % of control under setting [10]; 130 % of control under setting [11]. In addition, the survivor count reads like this: under setting [10], 5 of 6; under setting [11], 1 of 6; (dose: 800.0 mg/kg/injection, schedule: Q01DX005 (ip), vehicle: saline with Tween-80) 0 of 6.

The record behind these values is PubChem BioAssay AID330 (DTP/NCI, 2004).
